From ChEMBL document CHEMBL3988442, “University of Dundee, Small-Polar-MMV Screening Library” (2021).

Amino acid sequences for entries named in this document (tags omitted).
UniProt E9BF75, entry or part of it: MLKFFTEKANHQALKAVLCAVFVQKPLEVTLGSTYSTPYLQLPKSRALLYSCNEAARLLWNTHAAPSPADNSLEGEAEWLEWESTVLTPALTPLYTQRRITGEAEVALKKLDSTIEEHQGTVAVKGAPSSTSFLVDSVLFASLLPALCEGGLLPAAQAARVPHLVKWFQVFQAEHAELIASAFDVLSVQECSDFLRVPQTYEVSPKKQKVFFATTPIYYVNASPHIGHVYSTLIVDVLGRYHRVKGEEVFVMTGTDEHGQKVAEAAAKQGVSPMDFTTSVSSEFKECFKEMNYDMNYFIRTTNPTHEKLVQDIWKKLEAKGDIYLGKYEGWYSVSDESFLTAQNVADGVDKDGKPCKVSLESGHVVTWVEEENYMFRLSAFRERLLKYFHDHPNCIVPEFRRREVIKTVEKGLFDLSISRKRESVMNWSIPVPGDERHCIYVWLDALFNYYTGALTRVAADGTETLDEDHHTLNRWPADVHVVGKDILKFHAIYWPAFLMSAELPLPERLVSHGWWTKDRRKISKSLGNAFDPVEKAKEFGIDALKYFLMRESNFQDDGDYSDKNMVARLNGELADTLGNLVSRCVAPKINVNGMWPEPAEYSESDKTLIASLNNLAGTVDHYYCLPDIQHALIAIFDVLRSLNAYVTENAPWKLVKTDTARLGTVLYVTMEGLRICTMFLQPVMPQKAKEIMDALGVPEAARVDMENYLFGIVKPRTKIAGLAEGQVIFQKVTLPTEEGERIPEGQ

Results are percentages, as filed. How 0% and 100% were set is not recorded. Most values in the screen are low, and negative values occur. This is an unselected part of the compounds tested.

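Methionyl-tRNA synthetase (putative), Leishmania donovani (UniProt E9BF75). Primary screen of methionyl-tRNA synthetase; the read-out is not stated. The test concentration is not given. Values are per cent inhibition. Of about 68,000 compounds tested this way, about 24 (0.035%) reached 50% or more in at least one test.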

- Cn1ccnc1CN1CCN(CC(=O)NCC(F)(F)F)CC1 | 9.804%
- O=C(c1cocn1)N1C[C@H]2CCC[C@@]2(COc2ccccn2)C1 | 10.46%
- COc1cc(OC)c(C2CC(=O)Oc3cc(C)[nH]c(=O)c32)cc1OC (configuration not stated) | 13.51%
- CN(C(=O)CCc1nc(C2CC2)no1)c1cc(C#N)c2ccccc2n1 | 15.11%
- CC(C)(C)c1n[nH]c(C2CN(C(=O)c3cc(C4CC4)on3)CCO2)n1 (configuration not stated) | 5.634%
- CCc1c(C)nc2cc(C3CCN(Cc4cccnc4)C3)nn2c1O (configuration not stated) | 16.67%
- Cc1ccc(C(=O)NC2CCCCNC2=O)c(=O)[nH]1 (configuration not stated) | 14.75%
- Cc1cc(N2CCC(Cc3ncccn3)C2)ncn1 (configuration not stated) | 14.7%
- CSc1ncccc1C(=O)N1CCC2(CC1)c1nc[nH]c1CCN2C | 5.301%
- CC(=O)N(Cc1noc(C2CC2)n1)C1CCN(CC(=O)NC2CC2)C1 (configuration not stated) | 8.659%
- O=C1CCN(C(=O)C2(c3ccc(Br)cc3)CC2)CCN1 | 16.45%
- O=C(NCc1ccco1)c1nn(C2CCS(=O)(=O)C2)c2c1CCCC2 (configuration not stated) | 17.61%
- Cc1csc(NC(=O)C2(C)CN(C)CCO2)n1 (configuration not stated) | 9.346%
- CCn1nc(C)c(NC(=O)CN2CCN(C(C)=O)CC2)c1C | 17.98%
- O=C(NCC(O)c1ccc(F)cc1F)c1cccc(F)c1 (configuration not stated) | 7.143%
- c1cnc(N2CCN(C3CCC[C@@H]4CN(CC5CC5)C[C@H]34)CC2)nc1 (some centres not stated) | 10.37%
- CCN(CC)C(=O)c1ccn(COc2ccccc2)n1 | 7.884%
- CC(C)c1nnc(CCC(=O)N2CCCC(c3cnccn3)C2)o1 (configuration not stated) | 12.77%
- N#Cc1ccc(CNCC2CCN(CCO)CC2)cc1 | 9.36%
- Cc1c(C[S+](C)[O-])cccc1NC(=O)c1cc(Cl)ccn1 (configuration not stated) | 14.21%
- CC(C)c1noc(Cn2ncn3cccc3c2=O)n1 | 8.059%
- O=C(c1ccnnc1)N1CC2(CCN(c3ncccn3)C2)C1 | 16.79%
- CC(C)Nc1nc2c(s1)C(=O)CN(C)C2 | 3.641%
- CCOc1ccc(Cl)cc1CCNC(=O)N1CCCC(CO)C1 (configuration not stated) | 9.89%
- CC(=O)N1CCCC(c2ccnc(N(C)C)n2)C1 (configuration not stated) | 11%
- COc1ccc(/C=C/CN2CCN(c3nccnc3C)CC2)cc1 | 21.94%
- O=c1[nH]c(-c2ccccc2)nc2c1CCN(S(=O)(=O)N1CCCC1)C2 | 11.75%
- O=C(c1cc2c(s1)CCCC2)N1CCCC1Cn1cccn1 (configuration not stated) | 10.34%
- CC(=O)Nc1nc(CN2CCOC(Cn3nc(C)cc3C)C2)cs1 (configuration not stated) | -2.21%
- CC(C)(C)CC(=O)NC[C@H]1OC[C@@H](NCc2ccccn2)[C@@H]1O | 7.119%
- c1ccc(Cn2cc3c(n2)C(CNCc2ccco2)OCC3)nc1 (configuration not stated) | 15.24%
- CC(Nc1c(F)cc(C#N)cc1F)c1cccc(S(N)(=O)=O)c1 (configuration not stated) | 6.897%
- c1ccc(N2CCN(Cc3cnc(C4CCCCO4)nc3)CC2)cc1 (configuration not stated) | 7.595%
- COc1ccc(-n2ccc(C(=O)NCCN3CCC(C)CC3)n2)cc1 | 20.23%
- NCC1Cc2cc(-c3nccc(N4CCC(O)CC4)n3)cc(Cl)c2O1 (configuration not stated) | 43.56%
- Cc1csc(Nc2cc(C3CN(c4ccncn4)C3)nc(C)n2)n1 | 16.19%

The first 2 entries again:

{"compound": "Cn1ccnc1CN1CCN(CC(=O)NCC(F)(F)F)CC1", "inhibition": 9.804}
{"compound": "O=C(c1cocn1)N1C[C@H]2CCC[C@@]2(COc2ccccn2)C1", "inhibition": 10.46}